Results deposited as PubChem BioAssay AID1259289 (Sanger Institute, 2017).
Assay: 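Find kinases whose loss adds to targeted drugs in killing bowel cancer cells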 (primary screen). Cell system: human LS513 colorectal cancer cells. Reagents: siRNA pool against human genes. Challenge: anchor drug BYL719 at 1 µM, cetuximab at 5 µg/ml or trametinib at 10 nM, or DMSO vehicle alone; exposure time not given. Read-out: 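Survival versus non-targeting pool for each arm averaged over replicates, robust z-score in the arm with DMSO only, and synergy scores for BYL719, cetuximab or trametinib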. Reading the numbers: robust z-score, siRNA alone (DMSO): higher = more viable cells; strongly negative means essential. Call rule: 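a gene counts as active if its DMSO-only robust z-score falls under -3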. Calls: active = essential (knock-down alone); inactive = not essential.
The whole screen tested 794 reagents; below is a random part of them. 16 of them (2%) were called active. 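Active marks cell loss from silencing alone; drug synergy shows only in the synergy scores, not the calls.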 Not all columns of the deposit are shown. No sequences are given here. Not given: the amount of reagent, the time to read-out.

With BRSK1, what was measured?
robust z-score, siRNA alone (DMSO): 0.561; activity call: inactive

For CAMK1, how do the results read?
robust z-score, siRNA alone (DMSO): -0.548; activity call: inactive

For DGKD, what does the deposit list?
robust z-score, siRNA alone (DMSO): 0.561; activity call: inactive

For MUSK, what does the deposit list?
robust z-score, siRNA alone (DMSO): -2.3; activity call: inactive

Which result is listed for CDK17?
robust z-score, siRNA alone (DMSO): 0.561; activity call: inactive

For BCOR, how do the results read?
robust z-score, siRNA alone (DMSO): 0.186; activity call: inactive

With CKS1B, what was measured?
robust z-score, siRNA alone (DMSO): 0.561; activity call: inactive

What did the screen give for ARID1A?
robust z-score, siRNA alone (DMSO): 0.561; activity call: inactive

What did the screen give for CSK?
robust z-score, siRNA alone (DMSO): 0.561; activity call: inactive

For IP6K1, how do the results read?
robust z-score, siRNA alone (DMSO): 0.561; activity call: inactive

How did the screen score PRKAG3?
robust z-score, siRNA alone (DMSO): -2.53; activity call: inactive

For YES1, how do the results read?
robust z-score, siRNA alone (DMSO): 0.561; activity call: inactive

For PDK3, how do the results read?
robust z-score, siRNA alone (DMSO): 0.388; activity call: inactive

With CDK13, what was measured?
robust z-score, siRNA alone (DMSO): 0.561; activity call: inactive

For MAP4K3, what was measured?
robust z-score, siRNA alone (DMSO): 0.561; activity call: inactive

With GALK2, how do the results read?
robust z-score, siRNA alone (DMSO): 0.155; activity call: inactive

For BRD3, what does the deposit list?
robust z-score, siRNA alone (DMSO): 0.561; activity call: inactive

What is on record for CDK6?
robust z-score, siRNA alone (DMSO): -1.21; activity call: inactive

What did the screen give for MYLK4?
robust z-score, siRNA alone (DMSO): 0.368; activity call: inactive

As entered above:
IP6K1, activity call: inactive
Entry for ARID1A under “robust z-score, siRNA alone (DMSO)”: 0.561
